Data on 35 compounds can be found in PubChem BioAssay AID2685 (National Center for Advancing Translational Sciences (NCATS), 2010).

As usually defined, the AC50 is the midpoint of the concentration-response curve, whichever way the signal moves. Lower therefore signals greater potency.

The nature of this test: qHTS Assay for Lipid Storage Modulators in Drosophila S3 Cells.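 On cell number change: cells counted by Cell Tracker Red CMTPX staining in the red channel.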 Particulars: BODIPY lipid droplet fluorescence, 18-24 h; for cell number change: measured here: cell count max response, cells fed with added oleic acid. The essentials: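 Laser-scanning cytometry quantifies lipid droplet accumulation (500–530 nm total intensity; droplet/cell object ratio) in oleic acid-fed (400 uM added) Drosophila S3 cells treated with a concentration series. 20 uM Triacsin C defined 100% inhibition.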
In general terms: qHTS replaces the single test concentration by a dilution series.

Where [1] appears, read: measured here: lipid fluorescence (Fed channel) AC50, cells fed with added oleic acid.
[2] abbreviates: measured here: cell number channel AC50, cells fed with added oleic acid.

Some of the results follow. These are further read-outs of the screen, such as a control signal, another cell line or another target. No call is given for them. Compounds called inactive in the main read-out are mostly missing here. Words in brackets tell the shape of the fitted curve; partial curves, single points and poor fits give uncertain potencies.

`COc1ccc(C2/C=C\CN(C(=O)Nc3ccc(C(F)(F)F)cc3)CC(=O)N2Cc2ccc(F)cc2)cc1` (stereo not drawn): the cell number change is -27.7%. Also, the concentration at half-maximal activity (AC50) under setting [1] was 29100 nM [falling, single point].
As to `C/C(N)=C(/C#N)C(=O)COC(=O)c1cc(-c2cccc(Br)c2)nc2ccccc12`, the cell number change was -4.01%. Also, the AC50 under setting [2] was 2310 nM [falling, single point].
Turning to `Cc1cc(C)n(C(=O)c2ccc(S(=O)(=O)N3CCCC3)cc2)n1`, the cell number change was -4.53%. Besides, the AC50 under setting [1] is 146 nM [falling, full curve].
In the case of `CCOc1c2ccc(C(=O)NC3CCCc4ccccc43)cc2nn1CC` (stereo not drawn), the cell number change was 53.5%. In addition, under setting [2], the AC50 was 5800 nM [rising, full curve]. Also, the AC50 under setting [1] was 4610 nM [rising, partial curve].
In the case of `CCC(=O)c1ccc2ncccc2c1`, the cell number change is -59.5%. Further, under setting [2], the concentration at half-maximal activity (AC50) is 29100 nM [falling, single point]. For the same compound, the half-maximal activity concentration (AC50) under setting [1] was 2910 nM [rising, single point].
Consider `Cc1nnc(-c2cnn(C)c2N)n1CCCN(C)C`, for which the cell number change is -7.73%.
Turning to `O=C(Nc1ccccc1)C1=C[C@H](c2coc3ccccc3c2=O)C[C@H](OCc2ccc(CO)cc2)O1`, the cell number change amounted to 0.927%. Under setting [1], the AC50 was 18400 nM [falling, single point].
As to `Cc1cccc(OC(C)c2ccnc3nc(/N=C/N(C)C)nn23)c1` (stereo not drawn), the cell number change is 5.44%. Also, under setting [1], the concentration at half-maximal activity (AC50) was 29100 nM [rising, single point].
`CC/C(=N\NC(=O)c1ccncc1)C12CC3CC(CC(C3)C1)C2`: the cell number change is -17.2%. For the same compound, the AC50 under setting [1] was 130 nM [falling, full curve, poor fit].
As for `O=c1[nH]c2ccccc2nc1C(F)(F)C(F)F`, the cell number change amounted to 19.9%. Further, the AC50 under setting [2] is 73.1 nM [rising, full curve, poor fit]. The AC50 under setting [1] was 92 nM [rising, full curve].
As to `CCOc1ccc(NC(=O)NCCCN2CCCC2)cc1`, the cell number change was -59.4%. Besides, under setting [2], the AC50 was 25900 nM [falling, partial curve, poor fit].
As to `O=C(NCCN1CCOCC1)c1ccccc1N1C(=O)[C@@H]2Cc3c([nH]c4ccccc34)C(c3ccccc3)N2C1=O` (stereo partly drawn), the cell number change came to 0.491%. The AC50 under setting [1] was 92 nM [rising, full curve, poor fit].
Turning to `Cc1cccc(NC(=O)CSCC(=O)Nc2cc(Cl)ccc2N2CCN(C)CC2)c1`, the cell number change stood at 34.6%.
With `CCC1(C)Cc2c(sc3nnn(CC(=O)Nc4ccc(C)cc4)c(=O)c23)CO1` (stereo not drawn), the cell number change came out at 52%. Also, the AC50 under setting [2] was 23100 nM [rising, partial curve, poor fit]. In addition, the AC50 under setting [1] is 23100 nM [rising, partial curve].
In the case of `COc1cccc(NC(=O)CN(C)C(C)C(=O)N2CCCC2)c1` (stereo not drawn), the cell number change is -50.9%. Moreover, the AC50 under setting [2] was 920 nM [falling, full curve]. Further, under setting [1], the AC50 is 920 nM [falling, full curve].
Regarding `Cc1cc(C)c(O)c(-c2n[nH]c3c2C(c2cccc(O)c2)N(Cc2ccco2)C3=O)c1` (stereo not drawn), the cell number change was -52.3%. In addition, under setting [2], the AC50 was 16400 nM [falling, single point]. In addition, under setting [1], the AC50 was 16400 nM [falling, single point].
With `COc1ccc(NC(=O)COc2cccc3c2OC(C)(C)C3)cc1OC`, the cell number change was -13.1%. In addition, under setting [1], the AC50 is 231 nM [rising, full curve, poor fit].
On to `Cc1ccc(S(=O)(=O)N(C)C)cc1NC(=O)CSc1ncc(C(F)(F)F)cc1Cl`, for which the cell number change was -1.8%. For the same compound, the half-maximal activity concentration (AC50) under setting [1] was 32600 nM [falling, partial curve, poor fit].
`COc1c(Br)cc(C(N)=O)cc1OCc1ccccc1`: the cell number change is -18.5%. Under setting [2], the AC50 is 92 nM [falling, full curve, poor fit]. For the same compound, the AC50 under setting [1] is 73.1 nM [rising, full curve, poor fit].
In the case of `Cc1cc(=O)n(-c2ccc3ccccc3n2)[nH]1`, the AC50 under setting [2] is 580 nM [rising, full curve, poor fit].
As for `CCOc1ccc(S(=O)(=O)Nc2cccc(C(=O)NCC(c3ccccc3)N(C)C)c2)cc1` (stereo not drawn), the cell number change was found to be 112%. Besides, under setting [2], the AC50 was 29100 nM [rising, single point].
On to `Cc1ccc2c(c1)nc(NCCO)n2C`, for which the cell number change is 0.136%. Also, the AC50 under setting [1] was 5.8 nM [falling, full curve, poor fit].
Regarding `COc1ccc(OC)c(-c2csc(NC(=O)CSc3ccccc3)n2)c1`, the cell number change was -0.0814%.
As to `COc1ccc(Br)cc1CN(C)CC(=O)Nc1cccc(S(N)(=O)=O)c1`, the AC50 is 259 nM [rising, single point] under setting [2] and 6510 nM [rising, partial curve] under setting [1].
For `COc1cccc(CNC(=O)CCCc2c[nH]c3ccccc23)c1`, the cell number change was -50.4%. For the same compound, the AC50 under setting [2] was 7940 nM [falling, partial curve, poor fit]. Under setting [1], the AC50 is 8910 nM [falling, partial curve].
`COc1ccc(-c2nsc(SCC(=O)Nc3cc(C)on3)n2)cc1`: under setting [1], the AC50 is 2590 nM [falling, partial curve].
The same measure, in the same setting: the same measure for `CCCOc1ccc(C(CC(=O)O)NS(=O)(=O)c2ccc(NC(C)=O)cc2)cc1` (stereo not drawn): 920 nM [rising, full curve].
For `O=[N+]([O-])c1cc2c(cc1/C=N/n1c(-c3ccccn3)n[nH]c1=S)OCO2`, the cell number change was -13%. Also, under setting [2], the AC50 is 731 nM [rising, single point]. Moreover, the concentration at half-maximal activity (AC50) under setting [1] was 130 nM [falling, full curve, poor fit].
For `Cc1[nH]c2ccccc2c1CCC(N)=O`, the cell number change was found to be 12.2%. The AC50 under setting [2] is 6510 nM [falling, single point].
Take `Cn1c(N2CCOCC2)c(/C=N/O)c2ccccc21`: the cell number change was found to be 51.1%. The AC50 under setting [2] was 20600 nM [rising, partial curve]. In addition, the AC50 under setting [1] is 5170 nM [rising, partial curve].
On to `CC1CCN(C(=O)c2ccccc2NC(=O)c2cccc(S(=O)(=O)N(C)C)c2)CC1`, for which the cell number change was found to be 34.6%. For the same compound, under setting [2], the AC50 was 92 nM [rising, full curve, poor fit].
With `Cc1ccc(CNc2nc3ccc(C)cc3n3cnnc23)cc1`, the cell number change was -7.85%. For the same compound, the AC50 under setting [2] is 9.2 nM [rising, full curve, poor fit].
With `C=CCOc1cccc(CNCc2cccnc2)c1`, the cell number change is -0.276%. In addition, under setting [1], the AC50 was 3260 nM [rising, partial curve].
For `CCn1c(SCC(=O)Nc2nccs2)nnc1-c1cc2cccc(OC)c2o1`, the AC50 under setting [1] was 651 nM [falling, full curve].
Turning to `COc1cccc(-c2cc(C(F)(F)F)nc(N3CCOCC3)n2)c1`, the cell number change stood at 90.2%. The AC50 under setting [2] is 29100 nM [rising, partial curve, poor fit].
